US20160347850A1 (AbbVie / Abbott, published 2016)
Results are given in words; binding and its absence hold for the method and conditions named. Some binding calls cover weakened binding; strength is not graded here.

Amino acid sequences for entries named in this document (tags omitted). A change or cut given only in a name is not applied to a line headed by its entry. Chains listed by the source or under a name are the forms on record and can include a tag or linker.
UniProt P25942: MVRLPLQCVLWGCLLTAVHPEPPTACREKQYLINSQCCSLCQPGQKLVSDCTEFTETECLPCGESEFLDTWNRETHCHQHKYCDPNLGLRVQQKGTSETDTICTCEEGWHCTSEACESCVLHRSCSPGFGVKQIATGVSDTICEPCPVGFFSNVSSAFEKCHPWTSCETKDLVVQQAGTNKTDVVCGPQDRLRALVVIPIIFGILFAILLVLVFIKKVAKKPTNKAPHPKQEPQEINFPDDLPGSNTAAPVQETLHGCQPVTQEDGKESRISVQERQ
cyno CD40 (G7PG38, form named): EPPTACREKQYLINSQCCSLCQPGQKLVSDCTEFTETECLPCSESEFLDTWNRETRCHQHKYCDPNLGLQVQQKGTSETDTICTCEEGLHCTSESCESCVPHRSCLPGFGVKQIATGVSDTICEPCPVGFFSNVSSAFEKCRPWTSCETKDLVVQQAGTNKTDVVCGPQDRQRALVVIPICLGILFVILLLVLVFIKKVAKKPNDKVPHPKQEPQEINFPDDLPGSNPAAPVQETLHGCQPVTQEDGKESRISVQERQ

Assays:
Human CD40 [1] = target: T1, Human CD40 (human, UniProt P25942 21-277); assay: FACS on HEK cells expressing huCD40
Human CD40 [2] = target: T1, Human CD40; assay: FACS binding on HEK cells expressing huCD40
cyno CD40 [3] = target: T2, cyno CD40 (cynomolgus monkey, UniProt G7PG38 21-278); assay: FACS on HEK cells expressing cyno CD40
T2 construct: whole, on cells; also called cyCD40; cynomolgus monkey CD40

cyno CD40 [4] = target: T2, cyno CD40; assay: FACS binding on HEK cells expressing cyCD40

binding (Human CD40 [1]): binds
binding (Human CD40 [2]): binds
binding (cyno CD40 [3]): binds
binding (cyno CD40 [4]): binds
B1: chimeric Ab1 (chAb1) (antibody, V domains shown)
VH: EVQLVESGGGLVKPGGSLKVSCAASGFTFSDYGMNWVRQAPEKGLEWIAYISSGRSNIYYADTVKGRFTISRDNAKNTLFLQMTSLRSEDTAMYYCARSWGYFDVWGTGTTVTVSS
VL: DIVMTQSPSSLTVTAGEMVTMSCKSSQSLLNSGNQKNYLTWFQQKPGQPPKLLIYWASTRESGVPDRFAGSGSGTDFTLTISSVQAEDLAVYYCQNDYTYPLTFGAGTKLEIK
notes: Murine Ab1 variable regions on human constant regions; also called chimeric antibody (Antibody 1 (Ab1))
